A word on the AC50: it is the concentration at which the activity in the assay is half-maximal.

Drawing on PubChem BioAssay AID493014 (National Center for Advancing Translational Sciences (NCATS), 2011), this text covers AC50 for 64 compounds.

The list shows a part of the results. Further columns of the screen follow, without active or inactive calls. The list favours compounds with an active or inconclusive main result. Potencies come from curve fits of mixed quality, noted in brackets.

A short description of this assay: qHTS Assay to Find Inhibitors of Chronic Active B-Cell Receptor Signaling. The note with it: ABC-DLBCL IkBa-CBG/CBR reporter, luminescence ratio (green luciferase fused to IkBa over red control in TMD8 lymphoma cells), 4 h. The gist of the method:
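TMD8 ABC-DLBCL cells carrying doxycycline-inducible green luciferase fused to IkappaBalpha plus unfused red luciferase were exposed to compounds (up to 46 uM) for 4 hrs at 37C. Activity came from the overlap-corrected green/red luminescence ratio.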
(qHTS replaces the single test concentration by a dilution series.)

[1] abbreviates: measured here: CBR red luminescence, cell number.
Where [2] appears, read: measured here: IkBa-CBG green luminescence.

Take `CSc1ccccc1-c1nc(-c2ccncc2)no1`: under setting [1], the AC50 is 11.2 µM [falling, single point]. For `Cc1cccc(C(=O)OCC(=O)c2c(N)n(CC(C)C)c(=O)n(C)c2=O)c1O`, under setting [1], the AC50 is 8.2 µM [rising, partial curve]. With `CC(C)COCc1ccc(O)c2ncccc12`, the AC50 by setting is: under setting [1], 28.2 µM [falling, single point]; under setting [2], 35.5 µM [falling, single point].

Consider `CCCn1c(NC(=O)c2ccc(C)cc2)nc2ccccc21`, for which the AC50 under setting [1] was 20.6 µM [rising, partial curve, poor fit]. The same measure, in the same setting: then `O=C(CSc1ncn[nH]1)OCN1C(=O)c2ccccc2C1=O`, with 35.5 µM [rising, partial curve, poor fit]; and `Cc1occc1C(=O)Nc1ccc(Br)cc1F`, with 16.4 µM [falling, single point]; and `CCC(C)Nc1nc(CN2CCOCC2)nc2sc3c(c12)CCC3` (stereo not given), with 8.2 µM [rising, partial curve, poor fit]. The same measure, in the same setting: the result for `CCc1cc2cc(C(=O)Nc3ccccc3F)sc2s1` reads 4.61 µM [falling, partial curve]; that for `Cc1ccc(S(=O)(=O)C(CNC(=O)C(=O)NCc2ccc(Cl)cc2)c2ccco2)cc1` (stereo not given), 4.47 µM [rising, partial curve, poor fit]. As to `COc1ccc(OCC(=O)Nc2ccc3oc(=O)ccc3c2)cc1`, the AC50 under setting [1] was 5.62 µM [rising, partial curve, poor fit]. The same measure, in the same setting: then `Fc1ccccc1-c1cc2ncccc2cn1`, with 25.9 µM [falling, single point].

On to `COc1cccc(NC(=S)Nc2ccc(Br)cc2Cl)c1`, for which, under setting [1], the AC50 is 31.6 µM [rising, single point].

Regarding `COc1ccc(C(CNC(=O)c2ccc(-c3ccccc3Cl)o2)N2CCOCC2)cc1` (stereo not given), the AC50 under setting [1] was 20.6 µM [falling, single point]. Turning to `CCCC(C(=O)NCCC(C)C)N(Cc1ccc(OC)cc1)C(=O)c1snc(C(N)=O)c1N` (stereo not given), the AC50 under setting [1] is 35.5 µM [falling, single point].

For the compound `O=C(CCSc1nc(-c2ccc3c(c2)OCO3)cc(C(F)(F)F)n1)NCc1ccco1`, under setting [1], the AC50 was 1.64 µM [rising, partial curve, poor fit].

As for `Oc1oc(-c2ccccc2Br)nc1/C=N/c1ccccn1`, the AC50 under setting [1] was 7.08 µM [falling, partial curve]. `CC(NCc1ccccc1OC1CCCC1)c1ccccc1` (stereo not given): the AC50 under setting [1] was 22.4 µM [falling, single point]. Consider `CCN(C(=O)CCc1nc(-c2ccc(OC)cc2)no1)c1cc(OC)ccc1OC`, for which the AC50 under setting [1] is 29.1 µM [falling, single point]. In the case of `O=S(=O)(O)c1nc2ccccc2n1CCOc1ccccc1`, the AC50 under setting [1] was 17.8 µM [rising, single point]. For `COc1ccc(C(=O)Nc2ccc(S(=O)(=O)N3CCN(C)CC3)cc2)cc1[N+](=O)[O-]`, the AC50 under setting [1] is 10 µM [rising, partial curve, poor fit]. As for `Cc1ccc2nc3c(c(Nc4cccc(O)c4)c2c1)CCC3`, the AC50 under setting [1] was 10 µM [falling, partial curve, poor fit]. In the case of `COc1ccccc1NS(=O)(=O)c1cc(NC(=O)c2[nH]c(C)c(C(C)=O)c2C)ccc1N1CCOCC1`, the AC50 under setting [2] was 6.31 µM [falling, partial curve, poor fit]. With `COC1CCCCC1Nc1ccc(C)c(C)c1` (stereo not given), the AC50 under setting [1] is 13 µM [rising, partial curve, poor fit].

For the compound `CC(C)c1ccc(C(C)NCCS(=O)(=O)c2ccc(Cl)cc2)cc1` (stereo not given), the concentration at half-maximal activity (AC50) under setting [1] is 11.2 µM [falling, partial curve]. In the case of `O=C(O)c1ccc2c(c1)C(=O)N(CCCCCCCN1C(=O)c3ccc(C(=O)O)cc3C1=O)C2=O`, the AC50 under setting [1] was 15.8 µM [falling, partial curve, poor fit].

For `COc1cc(-c2c(C#N)c(N)nc(SCc3ccncc3)c2C#N)cc(OC)c1OC`, the AC50 under setting [1] is 35.5 µM [falling, single point]. `O=C(COc1ccc(Cl)cc1Cl)Nc1ccccn1`: the AC50 under setting [1] was 16.4 µM [falling, partial curve]. In the case of `COc1cccc(NS(=O)(=O)c2cc3c(cc2C)N(C(C)=O)CCO3)c1`, under setting [1], the AC50 is 14.1 µM [rising, partial curve, poor fit]. `Cc1cc(NC(=O)c2cc(-c3cccs3)on2)no1`: the AC50 under setting [1] was 35.5 µM [falling, single point]. Same read-out and setting: then `Cc1ccc(-c2n[nH]c(S(C)(=O)=O)c2C#N)cc1`, with 35.5 µM [rising, single point]; and `CCc1ccc(CN(C)Cc2nc(COc3ccccc3)no2)nc1`, with 17.8 µM [rising, single point]. In the case of `CCOc1ccccc1Nc1sc(C(=O)c2ccc(Cl)cc2)c(N)c1S(=O)(=O)c1ccccc1`, the AC50 under setting [1] was 0.708 µM [rising, full curve, poor fit]. As for `FC(F)(F)c1ccc(Nc2nnnc3ccccc23)cc1`, the AC50 under setting [1] is 15.8 µM [rising, partial curve, poor fit].

Consider `CCC(C)Nc1nc2c(c(=O)n(C)c(=O)n2C)n1Cc1ccc(F)cc1` (stereo not given), for which the AC50 under setting [1] was 14.6 µM [falling, partial curve, poor fit].

Turning to `Cc1ccccc1NC(=O)C(=Cc1ccc(C(=O)O)cc1)C(=O)Nc1ccccc1C`, under setting [1], the AC50 was 14.1 µM [falling, partial curve, poor fit]. Consider `COc1ccc(N2Cc3ccc(OC)c(OC)c3C2=O)cc1`, for which the concentration at half-maximal activity (AC50) under setting [1] was 10 µM [falling, single point].

In the case of `CCOc1ccccc1Oc1nc(C)nc2c1oc1ccccc12`, under setting [2], the concentration at half-maximal activity (AC50) was 20 µM [falling, single point]. As for `Fc1cccc(Nc2cc(-n3cccn3)ncn2)c1`, the concentration at half-maximal activity (AC50) under setting [1] is 1.84 µM [falling, partial curve, poor fit].

In the case of `CCCN=CC1=C(O)CC(c2ccccc2)CC1=O` (stereo not given), the AC50 under setting [1] is 25.9 µM [falling, partial curve, poor fit].

As for `CC1CC(C)CN(C(=O)c2ccc(CSc3nc4ccncc4[nH]3)cc2)C1` (stereo not given), the AC50 under setting [1] is 20.6 µM [falling, partial curve, poor fit].

Turning to `CC(C)=CCC/C(C)=C/COc1c2occc2cc2ccc(=O)oc12`, the AC50 under setting [1] is 29.1 µM [rising, single point].

Turning to `COC(=O)c1[nH]c2ccccc2c1NC(=O)CN1CCC(C(N)=O)(N2CCCCC2)CC1`, the AC50 under setting [1] was 16.4 µM [rising, partial curve, poor fit]. Same read-out and setting: then `C/C(=N\NC(=O)c1cc(C)oc1C)c1ccc2ccccc2c1`, with 4.47 µM [falling, partial curve, poor fit]. `O=C(NC1CCCCCCC1)C1CCC(CNc2c(N3CCCC3)c(=O)c2=O)CC1` (stereo not given): the AC50 under setting [1] is 7.31 µM [rising, partial curve].

As to `O=C(Cc1cccs1)NC1CCCC1`, the AC50 under setting [1] was 35.5 µM [rising, single point]. With `C#CCOc1ccc2c3c(c(=O)oc2c1)CCCC3`, the AC50 under setting [1] is 15.8 µM [rising, single point].

Take `O=C(Nc1nc2ccc(Cl)cc2s1)c1ccc(N2CCCCC2)c([N+](=O)[O-])c1`: under setting [1], the AC50 was 11.6 µM [falling, partial curve].

In the case of `Cc1cc(NS(=O)(=O)c2ccc(NC(=O)C(C)Oc3ccc(Cl)cc3)cc2)no1` (stereo not given), the AC50 under setting [1] was 0.112 µM [falling, full curve, poor fit].

For `Cn1c(=O)c2c(nc(N/N=C/c3ccc(OC(=O)c4ccco4)cc3)n2Cc2ccc(F)cc2)n(C)c1=O`, the half-maximal activity concentration (AC50) under setting [1] was 29.1 µM [falling, single point]. The same measure, in the same setting: then `Cn1c(C(C#N)C2=C(Cl)C(=O)N(c3ccccc3)C2=O)nc2ccccc21` (stereo not given), with 35.5 µM [falling, single point].

As to `Cc1ccc(NC(=O)CSc2nnc(CNC(=O)c3ccccc3F)o2)cc1Cl`, under setting [1], the AC50 is 35.5 µM [falling, single point].

Regarding `Cc1ccc(C2C(C#N)=C(N)Oc3n[nH]c(-c4cccnc4)c32)o1` (stereo not given), the AC50 under setting [1] was 10 µM [falling, partial curve, poor fit]. With `Cc1ccc(-n2c(SCC(=O)Nc3ncc(Cl)cc3Cl)nc3ccccc32)cc1`, the AC50 under setting [1] is 23.1 µM [falling, partial curve]. For `O=C(c1ccc(F)cc1)c1cc2ccccc2o1`, the AC50 under setting [1] is 6.31 µM [rising, full curve].

`COc1ccc(NC(=O)/C=C/c2ccc3c(c2)OCO3)cc1`: under setting [1], the AC50 is 3.55 µM [falling, full curve, poor fit]. For the compound `COc1ccc(/C=C/C(=O)N(Cc2cccs2)C2CCS(=O)(=O)C2)cc1` (stereo not given), under setting [1], the AC50 is 35.5 µM [rising, single point]. Same read-out and setting: the result for `CCn1cc(C(=O)NCCCN2CCC(C)CC2)c(=O)c2cc(S(=O)(=O)N3CCCC3)ccc21` reads 2.06 µM [falling, partial curve, poor fit]. Regarding `CC(=O)N1c2ccc(S(=O)(=O)N3CCC(C(=O)Nc4cc(C)cc(C)c4)CC3)cc2CC1C` (stereo not given), the AC50 under setting [1] was 3.55 µM [rising, partial curve, poor fit]. On to `CCOC(=O)Nc1ccc2c(CN3C(=O)NC(CC)(CC)C3=O)cc(=O)oc2c1`, for which the AC50 under setting [1] was 14.6 µM [falling, partial curve, poor fit]. Turning to `Cc1ccccc1CN(CC(=O)Nc1cccc([N+](=O)[O-])c1)S(=O)(=O)c1ccc(Cl)cc1`, the AC50 under setting [1] was 20.6 µM [falling, single point]. With `Cc1ccc(/C=C2\SC(=S)N(CCC(=O)NNC(=O)c3ccc(O)cc3)C2=O)cc1`, the AC50 under setting [1] was 6.31 µM [falling, partial curve, poor fit]. Same read-out and setting: the result for `O=C1CC(Cc2ccccc2)C(=O)N1Cc1ccco1` (stereo not given) reads 35.5 µM [falling, single point]; that for `COCc1cc(=O)n2[nH]c(SCc3ccccc3)nc2n1`, 6.51 µM [falling, partial curve].

Take `Brc1ccc(Cn2c(-c3cncs3)nc3ccccc32)cc1`: the AC50 under setting [1] is 18.4 µM [falling, partial curve, poor fit].
